For one compound, IC50 results are on record in publication PMC7965737 (Bioconjugate chemistry, 2019).

The structures appear in SMILES notation. Structures can show the parent of a compound that is named as a salt.

Usually IC50 stands for the midpoint of a concentration-inhibition curve. A high value points to a need for much substance.

In this assay the test system is MDA-MB-231. The assay can be described thus: MTT cytotoxicity assay, MDA-MB-231. Particulars: MDA-MB-231 breast cancer cell line, serum-free media, 48 h. It is filed as cell-based, Human.

Regarding `COc1cccc2c1C(=O)c1c(O)c3c(c(O)c1C2=O)C[C@@](O)(C(=O)CO)C[C@@H]3O[C@H]1C[C@H](N)[C@H](O)[C@H](C)O1` [Dox, Doxorubicin hydrochloride], half-maximal inhibition (IC50) required 1500 nM. In other words, the single-digit micromolar range.
